From the supplement of paper PMC10849652
The list shows a part of the results.

Sequences of proteins named here, by UniProt entry; tags and fusion partners are left off. A change or cut given only in a name is not applied to a line headed by its entry.
UniProt Q03701: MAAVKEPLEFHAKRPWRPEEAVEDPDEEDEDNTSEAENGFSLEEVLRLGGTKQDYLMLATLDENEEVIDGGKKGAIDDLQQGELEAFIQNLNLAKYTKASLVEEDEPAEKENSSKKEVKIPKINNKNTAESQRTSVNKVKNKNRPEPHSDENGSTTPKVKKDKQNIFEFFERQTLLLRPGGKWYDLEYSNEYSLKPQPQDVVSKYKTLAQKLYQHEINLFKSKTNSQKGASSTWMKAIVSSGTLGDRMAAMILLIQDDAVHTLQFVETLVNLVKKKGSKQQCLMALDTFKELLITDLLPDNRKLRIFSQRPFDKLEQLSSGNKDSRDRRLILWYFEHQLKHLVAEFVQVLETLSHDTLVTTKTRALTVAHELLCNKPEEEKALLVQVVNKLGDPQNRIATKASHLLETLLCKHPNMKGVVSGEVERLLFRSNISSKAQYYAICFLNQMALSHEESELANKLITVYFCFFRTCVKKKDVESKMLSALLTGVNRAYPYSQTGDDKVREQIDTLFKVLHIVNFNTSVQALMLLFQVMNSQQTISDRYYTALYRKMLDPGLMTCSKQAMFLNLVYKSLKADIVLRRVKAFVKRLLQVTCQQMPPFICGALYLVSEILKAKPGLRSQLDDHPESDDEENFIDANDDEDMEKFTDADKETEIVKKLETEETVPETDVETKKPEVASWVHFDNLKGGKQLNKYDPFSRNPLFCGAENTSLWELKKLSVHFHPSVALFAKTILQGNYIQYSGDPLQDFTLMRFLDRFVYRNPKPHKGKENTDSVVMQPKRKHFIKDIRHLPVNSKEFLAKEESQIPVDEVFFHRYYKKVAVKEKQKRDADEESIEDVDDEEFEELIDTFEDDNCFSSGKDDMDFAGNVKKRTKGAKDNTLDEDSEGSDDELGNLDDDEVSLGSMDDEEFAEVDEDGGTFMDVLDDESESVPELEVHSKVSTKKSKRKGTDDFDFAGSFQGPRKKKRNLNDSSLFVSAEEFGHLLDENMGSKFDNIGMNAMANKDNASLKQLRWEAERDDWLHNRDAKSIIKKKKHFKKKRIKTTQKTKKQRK
UniProt Q00587: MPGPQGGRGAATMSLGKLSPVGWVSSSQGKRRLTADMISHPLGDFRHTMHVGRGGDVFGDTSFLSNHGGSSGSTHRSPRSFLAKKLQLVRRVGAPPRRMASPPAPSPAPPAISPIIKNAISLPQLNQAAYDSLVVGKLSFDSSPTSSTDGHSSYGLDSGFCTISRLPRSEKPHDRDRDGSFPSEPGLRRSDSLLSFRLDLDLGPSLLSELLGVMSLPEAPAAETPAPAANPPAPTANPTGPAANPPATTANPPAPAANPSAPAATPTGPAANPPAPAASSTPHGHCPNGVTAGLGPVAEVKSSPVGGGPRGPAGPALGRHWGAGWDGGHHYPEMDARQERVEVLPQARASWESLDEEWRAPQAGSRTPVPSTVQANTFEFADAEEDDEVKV
UniProt Q8WUX2: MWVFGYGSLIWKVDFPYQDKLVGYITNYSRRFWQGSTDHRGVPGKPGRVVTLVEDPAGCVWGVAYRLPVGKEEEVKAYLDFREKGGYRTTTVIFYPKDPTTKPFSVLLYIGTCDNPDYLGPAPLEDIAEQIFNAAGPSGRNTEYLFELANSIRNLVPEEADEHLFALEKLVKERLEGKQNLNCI
UniProt Q9UFW8: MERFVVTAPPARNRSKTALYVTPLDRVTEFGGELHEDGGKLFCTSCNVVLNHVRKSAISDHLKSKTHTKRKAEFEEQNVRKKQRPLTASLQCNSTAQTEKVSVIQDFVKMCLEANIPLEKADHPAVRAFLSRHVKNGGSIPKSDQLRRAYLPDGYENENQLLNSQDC
UniProt A8MTT3: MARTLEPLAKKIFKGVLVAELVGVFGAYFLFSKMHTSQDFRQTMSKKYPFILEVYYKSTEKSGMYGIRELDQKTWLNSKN
UniProt O60508: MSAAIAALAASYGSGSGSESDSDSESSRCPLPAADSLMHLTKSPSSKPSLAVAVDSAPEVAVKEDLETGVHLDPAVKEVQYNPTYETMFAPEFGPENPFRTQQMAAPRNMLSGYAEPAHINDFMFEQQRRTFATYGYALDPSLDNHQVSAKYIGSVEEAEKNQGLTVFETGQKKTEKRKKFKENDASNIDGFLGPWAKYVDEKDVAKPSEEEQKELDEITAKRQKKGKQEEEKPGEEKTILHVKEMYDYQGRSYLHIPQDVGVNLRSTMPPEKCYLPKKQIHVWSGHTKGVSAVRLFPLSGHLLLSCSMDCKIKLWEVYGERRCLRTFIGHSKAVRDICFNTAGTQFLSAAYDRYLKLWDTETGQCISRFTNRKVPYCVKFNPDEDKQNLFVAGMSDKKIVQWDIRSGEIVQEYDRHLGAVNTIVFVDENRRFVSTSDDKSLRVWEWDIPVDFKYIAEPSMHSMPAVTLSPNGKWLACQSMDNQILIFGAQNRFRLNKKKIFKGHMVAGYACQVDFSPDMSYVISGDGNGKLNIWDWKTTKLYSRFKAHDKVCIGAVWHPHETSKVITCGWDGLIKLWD
UniProt Q00534, whole entry, looked up: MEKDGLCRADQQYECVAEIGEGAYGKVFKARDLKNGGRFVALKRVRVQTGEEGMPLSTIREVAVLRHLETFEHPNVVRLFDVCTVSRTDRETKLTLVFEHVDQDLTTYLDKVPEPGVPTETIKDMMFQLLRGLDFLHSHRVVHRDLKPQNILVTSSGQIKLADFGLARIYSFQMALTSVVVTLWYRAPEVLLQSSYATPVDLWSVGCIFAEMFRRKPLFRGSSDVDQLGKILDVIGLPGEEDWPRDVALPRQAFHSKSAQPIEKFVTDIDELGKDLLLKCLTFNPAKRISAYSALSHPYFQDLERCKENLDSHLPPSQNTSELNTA
UniProt P50613: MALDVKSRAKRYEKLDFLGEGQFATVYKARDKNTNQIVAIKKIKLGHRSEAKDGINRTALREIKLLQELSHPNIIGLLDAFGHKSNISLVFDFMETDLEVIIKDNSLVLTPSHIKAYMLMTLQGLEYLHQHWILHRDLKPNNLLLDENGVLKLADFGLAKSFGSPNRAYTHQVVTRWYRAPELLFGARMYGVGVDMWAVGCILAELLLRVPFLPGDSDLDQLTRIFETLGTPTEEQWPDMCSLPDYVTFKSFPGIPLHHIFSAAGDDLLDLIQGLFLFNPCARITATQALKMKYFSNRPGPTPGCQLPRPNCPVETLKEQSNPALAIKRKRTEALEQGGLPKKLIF
UniProt Q9H3R5: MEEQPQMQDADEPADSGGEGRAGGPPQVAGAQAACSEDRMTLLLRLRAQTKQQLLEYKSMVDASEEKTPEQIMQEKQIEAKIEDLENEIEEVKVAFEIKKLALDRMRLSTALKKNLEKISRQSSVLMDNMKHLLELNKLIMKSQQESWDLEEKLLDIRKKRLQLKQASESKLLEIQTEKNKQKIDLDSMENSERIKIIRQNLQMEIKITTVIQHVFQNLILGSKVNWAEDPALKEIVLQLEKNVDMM
UniProt Q8TAP6: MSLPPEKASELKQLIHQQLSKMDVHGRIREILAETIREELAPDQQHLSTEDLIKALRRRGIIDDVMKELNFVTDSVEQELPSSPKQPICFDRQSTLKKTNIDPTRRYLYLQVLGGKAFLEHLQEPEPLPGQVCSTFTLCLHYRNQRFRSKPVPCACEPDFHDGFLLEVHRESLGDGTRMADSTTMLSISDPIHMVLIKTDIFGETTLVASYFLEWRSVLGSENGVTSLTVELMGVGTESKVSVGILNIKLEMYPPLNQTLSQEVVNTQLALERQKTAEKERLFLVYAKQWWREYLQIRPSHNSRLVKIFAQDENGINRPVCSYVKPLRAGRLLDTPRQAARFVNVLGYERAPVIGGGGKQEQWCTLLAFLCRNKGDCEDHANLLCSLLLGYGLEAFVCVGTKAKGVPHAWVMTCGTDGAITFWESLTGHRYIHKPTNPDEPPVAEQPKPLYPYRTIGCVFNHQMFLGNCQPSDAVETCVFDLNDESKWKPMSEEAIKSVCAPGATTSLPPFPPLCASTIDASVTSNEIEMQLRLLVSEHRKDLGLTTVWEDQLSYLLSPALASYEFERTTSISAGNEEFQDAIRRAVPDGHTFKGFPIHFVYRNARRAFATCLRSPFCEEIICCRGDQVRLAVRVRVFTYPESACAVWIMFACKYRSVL
UniProt Q9H3Q1: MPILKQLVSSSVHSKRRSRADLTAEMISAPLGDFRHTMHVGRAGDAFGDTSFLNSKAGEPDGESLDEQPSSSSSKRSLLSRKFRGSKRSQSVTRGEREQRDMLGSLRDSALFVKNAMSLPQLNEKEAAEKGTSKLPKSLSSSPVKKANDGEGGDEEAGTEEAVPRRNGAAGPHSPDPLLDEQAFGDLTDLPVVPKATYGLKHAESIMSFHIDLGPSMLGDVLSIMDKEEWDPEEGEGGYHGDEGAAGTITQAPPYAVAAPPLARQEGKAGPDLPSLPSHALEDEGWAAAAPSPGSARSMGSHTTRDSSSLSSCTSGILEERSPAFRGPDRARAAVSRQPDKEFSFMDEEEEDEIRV
UniProt O95674: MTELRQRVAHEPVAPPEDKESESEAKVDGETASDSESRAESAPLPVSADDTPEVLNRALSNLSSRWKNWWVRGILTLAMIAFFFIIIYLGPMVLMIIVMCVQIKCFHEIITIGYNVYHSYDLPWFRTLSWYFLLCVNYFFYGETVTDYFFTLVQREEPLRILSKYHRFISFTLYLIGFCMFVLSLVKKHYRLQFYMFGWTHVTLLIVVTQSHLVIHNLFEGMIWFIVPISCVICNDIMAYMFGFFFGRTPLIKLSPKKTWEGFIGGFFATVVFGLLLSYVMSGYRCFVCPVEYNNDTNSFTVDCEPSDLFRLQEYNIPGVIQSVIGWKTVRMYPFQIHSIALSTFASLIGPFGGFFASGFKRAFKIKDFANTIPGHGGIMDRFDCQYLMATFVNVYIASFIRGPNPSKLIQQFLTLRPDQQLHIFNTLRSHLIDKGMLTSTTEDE
UniProt Q96FF9: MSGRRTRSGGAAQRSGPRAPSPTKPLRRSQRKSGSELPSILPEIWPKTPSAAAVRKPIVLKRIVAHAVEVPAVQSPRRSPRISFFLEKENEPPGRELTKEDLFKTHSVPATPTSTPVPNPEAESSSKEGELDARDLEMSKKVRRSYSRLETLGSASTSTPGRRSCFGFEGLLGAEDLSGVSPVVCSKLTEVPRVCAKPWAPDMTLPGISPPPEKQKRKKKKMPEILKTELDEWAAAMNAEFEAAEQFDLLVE
UniProt Q9H5V8, whole entry, looked up: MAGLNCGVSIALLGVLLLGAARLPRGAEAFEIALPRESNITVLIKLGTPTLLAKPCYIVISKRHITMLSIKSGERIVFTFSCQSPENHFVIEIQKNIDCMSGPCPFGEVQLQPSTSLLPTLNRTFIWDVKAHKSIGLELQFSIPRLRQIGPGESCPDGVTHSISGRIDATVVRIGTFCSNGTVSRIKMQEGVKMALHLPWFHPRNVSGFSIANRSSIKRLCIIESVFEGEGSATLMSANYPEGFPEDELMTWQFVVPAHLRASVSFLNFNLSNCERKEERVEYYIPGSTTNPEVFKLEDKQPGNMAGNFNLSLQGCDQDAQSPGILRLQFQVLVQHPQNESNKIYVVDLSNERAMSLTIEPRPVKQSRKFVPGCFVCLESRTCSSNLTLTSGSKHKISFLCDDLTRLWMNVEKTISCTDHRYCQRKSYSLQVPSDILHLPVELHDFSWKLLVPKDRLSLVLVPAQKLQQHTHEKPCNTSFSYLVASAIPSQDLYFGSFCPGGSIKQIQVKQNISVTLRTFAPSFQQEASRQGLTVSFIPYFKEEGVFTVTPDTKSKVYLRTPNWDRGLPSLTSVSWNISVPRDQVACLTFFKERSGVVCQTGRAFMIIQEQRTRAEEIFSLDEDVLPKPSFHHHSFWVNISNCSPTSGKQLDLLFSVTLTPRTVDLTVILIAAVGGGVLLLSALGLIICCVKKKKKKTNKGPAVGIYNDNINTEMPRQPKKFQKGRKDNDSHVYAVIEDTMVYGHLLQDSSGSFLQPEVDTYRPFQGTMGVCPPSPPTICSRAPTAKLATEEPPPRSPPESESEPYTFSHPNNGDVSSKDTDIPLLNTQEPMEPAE
UniProt O15182: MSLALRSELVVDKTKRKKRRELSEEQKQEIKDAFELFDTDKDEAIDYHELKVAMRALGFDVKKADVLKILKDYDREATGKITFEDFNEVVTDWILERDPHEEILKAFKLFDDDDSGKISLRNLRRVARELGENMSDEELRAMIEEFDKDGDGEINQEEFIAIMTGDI
UniProt P49427: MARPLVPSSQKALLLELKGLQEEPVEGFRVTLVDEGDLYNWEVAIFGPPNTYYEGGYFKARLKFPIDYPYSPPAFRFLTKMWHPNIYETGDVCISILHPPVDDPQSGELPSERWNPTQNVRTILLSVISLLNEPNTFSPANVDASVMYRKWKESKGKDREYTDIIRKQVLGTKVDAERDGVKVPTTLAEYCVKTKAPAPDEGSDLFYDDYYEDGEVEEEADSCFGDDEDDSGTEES

Assays:
Test in all cases: log2 fold change, soluble protein after heating vs DMSO (PISA); higher = thermal stabilisation; K562 lysate, 10 uM; active = over 0.2 and 3.5 SD of the protein, either way, in both replicates (recomputed)
[1] = compound: Cc1cn(-c2cc(NC(=O)c3ccc(C)c(Nc4nccc(-c5cccnc5)n4)c3)cc(C(F)(F)F)c2)cn1 [nilotinib]
In short: (§1)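 Log-two fold change in thermal stability relative to solvent controls is reported from duplicates. For each sample, crude K562 extract from dounce-homogenised pellets in PBS pH 7.4 with 1 mM MgCl2, at 1 mg/mL protein, was treated with 10 μM compound for 30 min. Aliquots heated for 3 min across 48°C-58°C were pooled, brought to 0.5% NP-40 at 4°C and cleared at 21,000xg for 90 min. The supernatant was quantified by TMTpro 16plex LC-MS/MS with channel sums equalised.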

[2] = compound: Cc1nc(Nc2n[nH]c3c2CN(C(=O)N[C@H](CN(C)C)c2ccccc2)C3(C)C)c2sccc2n1
In short: as §1

[3] = compound: Cc1nc(Nc2ncc(C(=O)Nc3c(C)cccc3Cl)s2)cc(N2CCN(CCO)CC2)n1 [dasatinib]
In short: as §1

[4] = compound: Cc1ncc(-c2ccnc(Nc3ccc(S(C)(=O)=O)cc3)n2)n1C(C)C
In short: as §1

[5] = compound: Cn1cc(-c2ccc3c(c2)CCN3C(=O)Cc2cccc(C(F)(F)F)c2)c2c(N)ncnc21
In short: as §1

[6] = compound: Cn1cc(CNCC2CCN(c3ncc(C(=O)NO)cn3)CC2)c2ccccc21 [quisinostat]
In short: as §1

[7] = compound: Cn1cncc1[C@@](N)(c1ccc(Cl)cc1)c1ccc2c(c1)c(-c1cccc(Cl)c1)cc(=O)n2C [tipifarnib]
In short: as §1

[8] = compound: NC(=O)Nc1cc(-c2cccc(F)c2)sc1C(=O)N[C@H]1CCCNC1
In short: as §1

[9] = compound: NC(=O)c1cnc(N[C@@H]2CCCC[C@@H]2N)nc1Nc1cccc(-n2nccn2)c1
In short: as §1

[10] = compound: NC1(c2ccc(-c3nc4ccn5c(=O)[nH]nc5c4cc3-c3ccccc3)cc2)CCC1
In short: as §1

[11] = compound: NCC(=O)Nc1ccc(-n2nc(C(F)(F)F)cc2-c2ccc3c(ccc4ccccc43)c2)cc1
In short: as §1

[12] = compound: O=C(CCCCCCC(=O)Nc1ccccc1)NO [vorinostat]
In short: as §1

[13] = compound: O=C(O)c1ccc2c(c1)nc(Nc1cccc(Cl)c1)c1ccncc12 [silmitasertib]
In short: as §1

[14] = compound: O=C1NC(=O)C(c2cnc3ccccn23)=C1c1cn2c3c(cc(F)cc13)CN(C(=O)N1CCCCC1)CC2
In short: as §1

[15] = compound: c1cn2cc(-c3ccc4cn[nH]c4c3)nc(Nc3ccc(N4CCOCC4)cc3)c2n1 [entospletinib]
In short: as §1

| Target | log2 fold change [1] | log2 fold change [2] | log2 fold change [3] | log2 fold change [4] | log2 fold change [5] | log2 fold change [6] | log2 fold change [7] | log2 fold change [8] | log2 fold change [9] | log2 fold change [10] | log2 fold change [11] | log2 fold change [12] | log2 fold change [13] | log2 fold change [14] | log2 fold change [15] |
| --- | --- | --- | --- | --- | --- | --- | --- | --- | --- | --- | --- | --- | --- | --- | --- |
| CEBPZ (UniProt Q03701) | inactive: 0.024 | inactive: -0.018 | inactive: -0.023 | inactive: 0 | inactive: 0.005 | inactive: -0.015 | inactive: 0.018 | inactive: 0.078 | inactive: -0.013 | inactive: -0.026 | inactive: -0.013 | inactive: -0.156 | inactive: 0.044 | inactive: 0.023 | inactive: 0.047 |
| CDC42EP1 (UniProt Q00587) | inactive: -0.1 | inactive: 0.148 | inactive: -0.105 | inactive: 0.029 | inactive: -0.18 | inactive: -0.091 | inactive: -0.221 | inactive: 0.031 | inactive: 0 | inactive: 0.089 | inactive: -0.036 | inactive: -0.249 | inactive: -0.04 | inactive: 0.019 | inactive: -0.031 |
| CEP290 (UniProt O15078) | inactive: -0.023 | inactive: -0.008 | inactive: -0.063 | inactive: -0.051 | inactive: -0.018 | inactive: -0.071 | inactive: 0.055 | inactive: -0.019 | inactive: 0.001 | inactive: 0.126 | inactive: -0.085 | inactive: -0.021 | inactive: 0.118 | inactive: -0.007 | inactive: -0.08 |
| CHAC2 (UniProt Q8WUX2) | inactive: 0.004 | inactive: 0.043 | inactive: -0.022 | inactive: -0.024 | inactive: 0.036 | inactive: -0.066 | inactive: 0.041 | inactive: 0.019 | inactive: 0.017 | inactive: -0.027 | inactive: -0.158 | inactive: 0.066 | inactive: -0.02 | inactive: -0.012 | inactive: -0.052 |
| CFAP47 (UniProt Q6ZTR5) | inactive: 0.078 | inactive: 0 | inactive: 0 | inactive: 0.101 | inactive: -0.092 | inactive: -0.194 | inactive: -0.095 | inactive: 0.123 | inactive: -0.125 | inactive: -0.321 | inactive: 0.103 | inactive: 0.237 | inactive: -0.213 | inactive: 0.323 | inactive: -0.054 |
| CGGBP1 (UniProt Q9UFW8) | inactive: 0.01 | inactive: -0.052 | inactive: 0.064 | inactive: -0.043 | inactive: -0.005 | inactive: 0.02 | inactive: -0.005 | inactive: -0.025 | inactive: 0.001 | inactive: 0.011 | inactive: 0.037 | inactive: 0.047 | inactive: -0.009 | inactive: 0.011 | inactive: 0 |
| CEP192 (UniProt Q8TEP8) | inactive: -0.012 | inactive: 0.005 | inactive: 0.027 | inactive: 0.015 | inactive: -0.015 | inactive: 0 | inactive: -0.018 | inactive: 0.009 | inactive: 0.026 | inactive: 0.039 | inactive: 0.034 | inactive: -0.128 | inactive: 0.058 | inactive: -0.019 | inactive: 0.051 |
| CEBPZOS (UniProt A8MTT3) | inactive: 0.069 | inactive: -0.01 | inactive: 0.053 | inactive: 0.024 | inactive: 0.044 | inactive: 0.02 | inactive: -0.017 | inactive: -0.039 | inactive: -0.004 | inactive: -0.008 | inactive: -0.113 | inactive: 0.082 | inactive: -0.004 | inactive: -0.025 | inactive: -0.037 |
| CDC40 (UniProt O60508) | inactive: -0.015 | inactive: -0.026 | inactive: -0.005 | inactive: 0.039 | inactive: 0.058 | inactive: -0.138 | inactive: 0.046 | inactive: 0.02 | inactive: 0.063 | inactive: 0.097 | inactive: 0.029 | inactive: 0.08 | inactive: 0.015 | inactive: 0.005 | inactive: 0.014 |
| CDK6 (UniProt Q00534) | inactive: 0.019 | inactive: -0.004 | inactive: 0.036 | inactive: 0.061 | inactive: 0.014 | inactive: -0.01 | inactive: 0.042 | inactive: -0.022 | inactive: -0.006 | inactive: 0 | inactive: 0.012 | inactive: 0.025 | inactive: 0.041 | inactive: 0.114 | inactive: -0.013 |
| CDC37 (UniProt K7EKQ2) | inactive: 0.018 | inactive: -0.023 | inactive: -0.021 | inactive: -0.22 | inactive: -0.086 | inactive: 0.024 | inactive: -0.194 | inactive: 0.097 | inactive: -0.042 | inactive: 0.14 | inactive: -0.01 | inactive: -0.031 | inactive: 0.012 | inactive: -0.112 |  |
| CDK7 (UniProt P50613) | inactive: -0.011 | inactive: 0.155 | inactive: -0.009 | inactive: -0.026 | inactive: -0.049 | inactive: 0.051 | inactive: 0.03 | inactive: 0.008 | inactive: -0.009 | inactive: -0.014 | inactive: 0.029 | inactive: -0.067 | inactive: -0.021 | inactive: 0.03 | inactive: 0.019 |
| CENPH (UniProt Q9H3R5) | inactive: 0.006 | inactive: 0.02 | inactive: 0.02 | inactive: -0.019 | inactive: 0 | inactive: -0.071 | inactive: 0.004 | inactive: 0.042 | inactive: 0.009 | inactive: -0.006 | inactive: -0.045 | inactive: 0.01 | inactive: 0.007 | inactive: -0.034 | inactive: 0.003 |
| CEP76 (UniProt Q8TAP6) | inactive: -0.005 | inactive: -0.021 | inactive: -0.002 | inactive: -0.021 | inactive: -0.005 | active: -0.241 | inactive: 0.006 | inactive: -0.01 | inactive: -0.015 | inactive: -0.02 | inactive: -0.1 | inactive: -0.055 | inactive: 0.027 | inactive: -0.051 | inactive: 0.039 |
| CENPF (UniProt P49454) | inactive: 0.007 | inactive: 0.005 | inactive: -0.001 | inactive: 0.025 | inactive: 0.006 | inactive: -0.019 | inactive: -0.017 | inactive: -0.001 | inactive: -0.018 | inactive: -0.003 | inactive: -0.002 | inactive: -0.027 | inactive: -0.022 | inactive: 0.01 | inactive: -0.017 |
| CDC42EP4 (UniProt Q9H3Q1) | inactive: 0.061 | inactive: -0.043 | inactive: 0.039 | inactive: -0.026 | inactive: -0.028 | inactive: -0.045 | inactive: 0.006 | inactive: -0.02 | inactive: -0.025 | inactive: 0.02 | inactive: 0 | inactive: 0.018 | inactive: -0.074 | inactive: 0.021 | inactive: 0.051 |
| CDS2 (UniProt O95674) | inactive: -0.035 | inactive: -0.093 | inactive: 0.073 | inactive: 0.062 | inactive: -0.005 | inactive: -0.045 | inactive: 0.093 | inactive: -0.01 | inactive: 0 | inactive: -0.152 | inactive: 0.007 | inactive: 0.093 | inactive: 0.024 | inactive: -0.065 | inactive: -0.028 |
| CDCA5 (UniProt Q96FF9) | inactive: 0.187 | inactive: -0.087 | inactive: -0.145 | inactive: 0.066 | inactive: -0.004 | inactive: -0.102 | inactive: -0.026 | inactive: 0.074 | inactive: 0.075 | inactive: -0.115 | inactive: 0.118 | inactive: -0.194 | inactive: 0.011 | inactive: -0.04 | inactive: -0.03 |
| CDCP1 (UniProt Q9H5V8) | inactive: -0.025 | inactive: -0.039 | inactive: 0.017 | inactive: 0.003 | inactive: 0.01 | inactive: -0.068 | inactive: -0.029 | inactive: 0.017 | inactive: 0.009 | inactive: -0.001 | inactive: 0.015 | inactive: 0.049 | inactive: 0.018 | inactive: 0.016 | inactive: -0.029 |
| CETN3 (UniProt O15182) | inactive: -0.005 | inactive: -0.012 | inactive: -0.069 | inactive: -0.105 | inactive: 0.01 | inactive: 0.069 | inactive: -0.028 | inactive: -0.057 | inactive: 0.05 | inactive: 0.034 | inactive: 0.029 | inactive: -0.022 | inactive: 0.041 | inactive: -0.183 | inactive: -0.048 |
| CDC34 (UniProt P49427) | inactive: -0.002 | inactive: -0.018 | inactive: -0.007 | inactive: -0.015 | inactive: 0.059 | inactive: -0.022 | inactive: 0.033 | inactive: -0.009 | inactive: 0.042 | inactive: 0.01 | inactive: 0.017 | inactive: 0.01 | inactive: -0.047 | inactive: 0.009 | inactive: -0.02 |

2 entries from above, tab-delimited:
Target	log2 fold change [1]	log2 fold change [2]	log2 fold change [3]	log2 fold change [4]	log2 fold change [5]	log2 fold change [6]	log2 fold change [7]	log2 fold change [8]	log2 fold change [9]	log2 fold change [10]	log2 fold change [11]	log2 fold change [12]	log2 fold change [13]	log2 fold change [14]	log2 fold change [15]
CDCA5 (UniProt Q96FF9)	inactive: 0.187	inactive: -0.087	inactive: -0.145	inactive: 0.066	inactive: -0.004	inactive: -0.102	inactive: -0.026	inactive: 0.074	inactive: 0.075	inactive: -0.115	inactive: 0.118	inactive: -0.194	inactive: 0.011	inactive: -0.04	inactive: -0.03
CDCP1 (UniProt Q9H5V8)	inactive: -0.025	inactive: -0.039	inactive: 0.017	inactive: 0.003	inactive: 0.01	inactive: -0.068	inactive: -0.029	inactive: 0.017	inactive: 0.009	inactive: -0.001	inactive: 0.015	inactive: 0.049	inactive: 0.018	inactive: 0.016	inactive: -0.029
